Data as given in the supplement of paper PMC6411743.
± gives the standard deviation of the averaged measurements. The entries are a selection whose mix differs from that of the whole data set.

Protein sequences, listed by entry. Tags and fused reporters are not part of them. Lines headed by an entry give the natural chain unless they say otherwise; changes in a name come on top.
UniProt Q86UA6: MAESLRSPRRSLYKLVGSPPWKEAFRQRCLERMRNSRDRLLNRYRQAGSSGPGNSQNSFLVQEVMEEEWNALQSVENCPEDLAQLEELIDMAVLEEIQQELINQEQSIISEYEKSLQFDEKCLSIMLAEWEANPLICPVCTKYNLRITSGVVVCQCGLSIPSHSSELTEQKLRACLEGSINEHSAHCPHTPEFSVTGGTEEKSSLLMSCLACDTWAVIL
UniProt Q8N680: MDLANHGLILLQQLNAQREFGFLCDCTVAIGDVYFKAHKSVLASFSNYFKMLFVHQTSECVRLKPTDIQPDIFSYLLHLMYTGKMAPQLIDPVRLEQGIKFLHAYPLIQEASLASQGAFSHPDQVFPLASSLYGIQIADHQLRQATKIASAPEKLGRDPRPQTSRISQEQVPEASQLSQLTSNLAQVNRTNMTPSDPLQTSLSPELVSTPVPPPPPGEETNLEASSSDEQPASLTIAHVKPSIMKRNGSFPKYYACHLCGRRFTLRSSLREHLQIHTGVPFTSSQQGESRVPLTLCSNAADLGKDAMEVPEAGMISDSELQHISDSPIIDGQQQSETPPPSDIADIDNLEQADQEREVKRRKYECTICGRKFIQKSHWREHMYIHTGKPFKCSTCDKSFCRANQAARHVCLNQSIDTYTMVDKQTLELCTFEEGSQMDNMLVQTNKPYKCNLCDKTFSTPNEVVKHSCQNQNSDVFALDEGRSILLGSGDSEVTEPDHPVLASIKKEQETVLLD
UniProt Q7Z6J9: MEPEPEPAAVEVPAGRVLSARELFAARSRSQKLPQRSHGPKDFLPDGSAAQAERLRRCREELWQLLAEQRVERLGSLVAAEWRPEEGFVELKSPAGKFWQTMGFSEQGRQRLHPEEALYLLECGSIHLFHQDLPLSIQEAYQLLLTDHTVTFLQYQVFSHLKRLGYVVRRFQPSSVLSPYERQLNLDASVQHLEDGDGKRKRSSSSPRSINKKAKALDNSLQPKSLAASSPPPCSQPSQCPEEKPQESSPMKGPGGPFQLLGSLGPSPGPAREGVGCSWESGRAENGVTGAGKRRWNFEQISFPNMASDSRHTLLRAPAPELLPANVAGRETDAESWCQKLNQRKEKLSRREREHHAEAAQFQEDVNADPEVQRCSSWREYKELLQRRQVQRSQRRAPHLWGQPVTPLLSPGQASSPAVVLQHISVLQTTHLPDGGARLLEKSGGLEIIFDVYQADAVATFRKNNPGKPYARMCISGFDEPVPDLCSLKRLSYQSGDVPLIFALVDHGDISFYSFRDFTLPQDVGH
UniProt Q86X55: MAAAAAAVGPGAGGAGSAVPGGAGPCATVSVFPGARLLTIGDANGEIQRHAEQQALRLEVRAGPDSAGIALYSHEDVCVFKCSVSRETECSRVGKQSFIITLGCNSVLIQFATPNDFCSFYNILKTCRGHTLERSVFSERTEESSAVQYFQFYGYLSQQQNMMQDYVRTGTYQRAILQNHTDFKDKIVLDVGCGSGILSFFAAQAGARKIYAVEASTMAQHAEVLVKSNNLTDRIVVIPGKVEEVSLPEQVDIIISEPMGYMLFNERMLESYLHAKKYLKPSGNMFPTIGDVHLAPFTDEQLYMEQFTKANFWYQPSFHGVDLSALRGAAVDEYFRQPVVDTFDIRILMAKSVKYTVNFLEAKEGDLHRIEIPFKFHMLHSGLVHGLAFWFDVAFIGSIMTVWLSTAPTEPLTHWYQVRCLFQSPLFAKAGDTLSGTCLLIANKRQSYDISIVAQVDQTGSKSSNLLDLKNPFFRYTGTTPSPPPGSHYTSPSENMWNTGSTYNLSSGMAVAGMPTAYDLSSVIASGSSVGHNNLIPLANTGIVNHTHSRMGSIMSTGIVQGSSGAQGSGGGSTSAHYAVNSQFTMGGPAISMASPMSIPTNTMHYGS
UniProt Q8N9R8: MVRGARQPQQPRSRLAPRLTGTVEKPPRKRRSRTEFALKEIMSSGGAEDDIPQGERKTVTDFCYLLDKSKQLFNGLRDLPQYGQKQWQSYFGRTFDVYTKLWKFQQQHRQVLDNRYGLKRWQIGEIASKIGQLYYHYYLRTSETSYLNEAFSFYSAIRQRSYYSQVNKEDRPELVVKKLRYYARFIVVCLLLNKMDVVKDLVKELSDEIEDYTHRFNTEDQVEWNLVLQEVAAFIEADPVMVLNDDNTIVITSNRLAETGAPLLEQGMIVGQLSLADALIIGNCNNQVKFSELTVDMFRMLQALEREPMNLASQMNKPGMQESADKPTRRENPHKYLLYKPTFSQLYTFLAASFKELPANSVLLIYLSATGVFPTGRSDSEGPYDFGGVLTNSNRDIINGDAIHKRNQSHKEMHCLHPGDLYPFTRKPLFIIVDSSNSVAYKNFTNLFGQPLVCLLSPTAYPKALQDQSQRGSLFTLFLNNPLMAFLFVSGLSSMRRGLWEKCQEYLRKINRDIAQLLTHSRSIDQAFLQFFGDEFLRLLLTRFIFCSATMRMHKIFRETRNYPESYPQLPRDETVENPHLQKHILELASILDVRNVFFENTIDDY
UniProt Q8IXI1, whole entry, looked up: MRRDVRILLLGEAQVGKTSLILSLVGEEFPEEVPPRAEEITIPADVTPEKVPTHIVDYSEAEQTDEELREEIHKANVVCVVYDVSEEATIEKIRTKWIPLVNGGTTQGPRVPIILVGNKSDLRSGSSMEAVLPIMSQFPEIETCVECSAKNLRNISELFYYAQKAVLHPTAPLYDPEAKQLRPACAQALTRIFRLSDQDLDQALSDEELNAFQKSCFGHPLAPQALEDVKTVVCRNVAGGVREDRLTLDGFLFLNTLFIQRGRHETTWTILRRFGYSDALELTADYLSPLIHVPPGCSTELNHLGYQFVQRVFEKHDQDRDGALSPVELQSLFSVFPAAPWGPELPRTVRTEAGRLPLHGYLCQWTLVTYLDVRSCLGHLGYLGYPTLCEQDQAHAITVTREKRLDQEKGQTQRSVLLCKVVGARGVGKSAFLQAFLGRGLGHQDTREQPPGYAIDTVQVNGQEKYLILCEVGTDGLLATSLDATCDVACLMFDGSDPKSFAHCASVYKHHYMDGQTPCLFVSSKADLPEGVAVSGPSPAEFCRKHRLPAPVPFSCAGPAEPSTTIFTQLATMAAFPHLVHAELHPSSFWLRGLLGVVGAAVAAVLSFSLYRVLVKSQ
UniProt Q8IVB4: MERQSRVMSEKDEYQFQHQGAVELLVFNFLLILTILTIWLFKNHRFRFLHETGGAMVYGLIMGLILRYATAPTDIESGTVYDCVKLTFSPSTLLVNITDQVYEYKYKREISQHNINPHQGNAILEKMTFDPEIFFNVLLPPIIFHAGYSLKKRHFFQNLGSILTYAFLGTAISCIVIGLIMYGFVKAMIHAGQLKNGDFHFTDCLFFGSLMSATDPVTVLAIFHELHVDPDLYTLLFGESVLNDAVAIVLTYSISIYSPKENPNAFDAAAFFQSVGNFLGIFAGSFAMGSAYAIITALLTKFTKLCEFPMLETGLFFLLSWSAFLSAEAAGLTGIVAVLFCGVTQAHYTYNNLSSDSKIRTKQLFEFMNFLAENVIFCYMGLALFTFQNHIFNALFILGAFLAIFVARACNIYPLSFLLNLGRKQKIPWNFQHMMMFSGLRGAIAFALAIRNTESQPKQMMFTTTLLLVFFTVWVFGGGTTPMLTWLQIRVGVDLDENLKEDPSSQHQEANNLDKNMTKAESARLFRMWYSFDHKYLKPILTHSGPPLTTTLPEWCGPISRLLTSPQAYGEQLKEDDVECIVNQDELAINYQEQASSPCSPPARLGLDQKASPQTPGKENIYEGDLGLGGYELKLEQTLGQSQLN
UniProt Q86VX2, whole entry: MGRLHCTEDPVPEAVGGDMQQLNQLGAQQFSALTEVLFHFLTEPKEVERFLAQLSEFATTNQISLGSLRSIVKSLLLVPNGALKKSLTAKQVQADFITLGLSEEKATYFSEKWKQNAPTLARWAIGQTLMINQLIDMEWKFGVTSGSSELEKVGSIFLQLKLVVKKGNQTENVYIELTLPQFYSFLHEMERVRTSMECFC
UniProt Q86V88: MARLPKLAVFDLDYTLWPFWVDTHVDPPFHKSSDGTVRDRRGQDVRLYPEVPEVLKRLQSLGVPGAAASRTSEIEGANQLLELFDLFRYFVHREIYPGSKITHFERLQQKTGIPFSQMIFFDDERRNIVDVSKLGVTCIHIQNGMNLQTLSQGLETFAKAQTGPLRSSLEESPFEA
UniProt Q8NB90: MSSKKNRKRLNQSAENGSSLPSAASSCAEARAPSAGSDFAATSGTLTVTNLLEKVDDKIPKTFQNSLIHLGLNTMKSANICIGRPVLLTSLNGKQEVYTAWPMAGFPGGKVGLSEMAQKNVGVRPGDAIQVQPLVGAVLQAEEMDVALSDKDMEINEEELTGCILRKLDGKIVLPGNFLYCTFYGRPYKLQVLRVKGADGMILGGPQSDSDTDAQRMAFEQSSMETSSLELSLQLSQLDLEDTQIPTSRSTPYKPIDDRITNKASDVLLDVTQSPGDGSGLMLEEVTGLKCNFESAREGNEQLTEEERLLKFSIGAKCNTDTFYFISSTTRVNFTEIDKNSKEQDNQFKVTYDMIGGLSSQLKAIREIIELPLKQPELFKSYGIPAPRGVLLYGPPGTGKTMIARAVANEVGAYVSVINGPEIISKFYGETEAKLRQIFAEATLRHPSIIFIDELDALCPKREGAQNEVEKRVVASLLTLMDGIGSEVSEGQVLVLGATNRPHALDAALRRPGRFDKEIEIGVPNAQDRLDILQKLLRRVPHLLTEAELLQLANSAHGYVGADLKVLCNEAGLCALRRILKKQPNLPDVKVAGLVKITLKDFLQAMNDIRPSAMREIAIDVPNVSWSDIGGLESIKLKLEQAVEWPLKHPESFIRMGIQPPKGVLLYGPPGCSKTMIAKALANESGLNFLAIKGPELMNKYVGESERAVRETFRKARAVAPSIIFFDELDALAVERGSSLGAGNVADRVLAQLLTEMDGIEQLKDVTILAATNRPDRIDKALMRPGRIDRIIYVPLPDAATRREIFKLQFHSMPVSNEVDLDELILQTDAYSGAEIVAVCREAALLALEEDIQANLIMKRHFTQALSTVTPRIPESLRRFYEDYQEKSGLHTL
UniProt Q8IWT6: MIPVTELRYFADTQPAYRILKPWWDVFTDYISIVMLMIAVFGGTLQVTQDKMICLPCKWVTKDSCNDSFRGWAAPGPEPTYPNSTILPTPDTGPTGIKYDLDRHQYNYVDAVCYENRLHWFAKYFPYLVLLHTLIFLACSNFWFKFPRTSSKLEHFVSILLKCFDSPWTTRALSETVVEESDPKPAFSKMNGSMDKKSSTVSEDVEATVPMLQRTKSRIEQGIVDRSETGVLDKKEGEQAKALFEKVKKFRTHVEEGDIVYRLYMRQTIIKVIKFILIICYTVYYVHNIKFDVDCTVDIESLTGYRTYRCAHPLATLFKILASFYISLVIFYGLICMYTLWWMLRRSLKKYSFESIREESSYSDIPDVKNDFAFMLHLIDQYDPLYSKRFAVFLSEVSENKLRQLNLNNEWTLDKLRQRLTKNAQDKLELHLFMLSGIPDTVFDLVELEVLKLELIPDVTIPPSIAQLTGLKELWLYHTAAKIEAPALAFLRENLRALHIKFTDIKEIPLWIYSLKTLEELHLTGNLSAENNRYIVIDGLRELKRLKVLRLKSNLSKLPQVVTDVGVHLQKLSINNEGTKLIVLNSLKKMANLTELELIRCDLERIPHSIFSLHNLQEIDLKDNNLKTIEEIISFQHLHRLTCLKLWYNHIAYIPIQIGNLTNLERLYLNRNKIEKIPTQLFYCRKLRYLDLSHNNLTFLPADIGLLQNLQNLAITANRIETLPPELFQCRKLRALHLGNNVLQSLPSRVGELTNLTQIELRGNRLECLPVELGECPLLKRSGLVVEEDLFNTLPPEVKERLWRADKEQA
UniProt Q8N488: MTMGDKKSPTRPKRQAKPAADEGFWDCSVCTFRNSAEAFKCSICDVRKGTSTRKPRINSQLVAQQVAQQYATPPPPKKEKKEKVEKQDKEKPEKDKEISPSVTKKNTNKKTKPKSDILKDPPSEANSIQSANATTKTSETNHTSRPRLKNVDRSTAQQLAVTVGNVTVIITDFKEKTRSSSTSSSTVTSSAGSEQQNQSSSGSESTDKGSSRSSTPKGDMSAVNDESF
UniProt Q86V59: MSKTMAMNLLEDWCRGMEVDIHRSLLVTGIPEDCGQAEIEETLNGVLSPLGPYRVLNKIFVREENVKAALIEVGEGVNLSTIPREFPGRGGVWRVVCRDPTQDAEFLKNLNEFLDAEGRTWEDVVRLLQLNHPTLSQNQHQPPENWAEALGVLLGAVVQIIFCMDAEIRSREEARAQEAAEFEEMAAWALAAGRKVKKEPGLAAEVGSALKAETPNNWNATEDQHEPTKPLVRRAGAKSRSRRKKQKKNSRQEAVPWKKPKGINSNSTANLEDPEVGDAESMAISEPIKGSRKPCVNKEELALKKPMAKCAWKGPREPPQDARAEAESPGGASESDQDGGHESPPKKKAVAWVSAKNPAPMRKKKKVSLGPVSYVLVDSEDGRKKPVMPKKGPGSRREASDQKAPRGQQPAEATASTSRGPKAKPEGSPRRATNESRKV

Compound: Nc1ncnc2c1ncn2[C@@H]1O[C@H](COP(=O)(O)OP(=O)(O)NP(=O)(O)O)[C@@H](O)[C@H]1O [adenylyl imidodiphosphate]
Assay: NP40-soluble protein abundance relative to vehicle (solubility fold change) (ratio); higher = more soluble protein in presence of AMP-PNP
In short: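 Data come from three independent experiments in which Dounce-homogenised Jurkat crude lysate was treated at eight concentrations from 0.1 to 10 mM. Treatment ran 10 min at room temperature and then 3 min at 37 °C, after which 0.8% NP40 and benzonase were added for 60 min at 4 °C before ultracentrifugation. The supernatant underwent TMT labelling and LC-MS/MS, and vsn-normalised intensities were expressed as fold change against the detergent-processed vehicle in each replicate.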

Target	NP40-soluble protein abundance (concentration: 1mM)	NP40-soluble protein abundance (concentration: 2mM)	NP40-soluble protein abundance (concentration: 4mM)	NP40-soluble protein abundance (concentration: 6mM)	NP40-soluble protein abundance (concentration: 8mM)	NP40-soluble protein abundance (concentration: 10mM)
UniProt Q86XP3 and related entries	1.02 ± 0.011	1.03 ± 0.018	1.06 ± 0.017	1.04 ± 0.023	1.071 ± 0.01	1.1 ± 0.027
LYSMD2 (UniProt Q8IV50)	0.964 ± 0.068	0.903 ± 0.025	0.943 ± 0.051	0.931 ± 0.053	0.97 ± 0.062	0.902 ± 0.045
UniProt Q8N766 and related entries	0.967 ± 0.032	0.947 ± 0.017	0.98 ± 0.046	1.06 ± 0.082	1.08 ± 0.066	1.06 ± 0.076
UniProt Q86TM6 and related entries	0.97 ± 0.021	0.993 ± 0.075	0.996 ± 0.042	0.963 ± 0.026	0.987 ± 0.039	0.985 ± 0.037
UniProt Q8N9B5 and related entries	1.02 ± 0.014	1.02 ± 0.026	1.03 ± 0.027	1.04 ± 0.023	1.01 ± 0.0097	1.06 ± 0.043
UniProt Q86UA6 and related entries	1.02 ± 0.017	0.98 ± 0.038	0.956 ± 0.034	0.9421 ± 0.0054	0.938 ± 0.038	0.908 ± 0.045
ZBTB33 (UniProt Q86T24)	0.997 ± 0.06	1 ± 0.028	0.995 ± 0.046	0.997 ± 0.017	0.962 ± 0.048	1.01 ± 0.036
UniProt Q8NBJ5	0.979 ± 0.032	0.932 ± 0.041	0.977 ± 0.012	0.968 ± 0.026	0.95 ± 0.019	0.937 ± 0.024
ZBTB2 (UniProt Q8N680)	0.994 ± 0.042	1.01 ± 0.033	1.03 ± 0.061	0.976 ± 0.054	0.997 ± 0.053	0.998 ± 0.076
UniProt Q8N4L2 and related entries	0.974 ± 0.042	0.992 ± 0.045	0.965 ± 0.038	1.03 ± 0.023	1.01 ± 0.07	0.987 ± 0.029
UniProt Q86YB8	1 ± 0.015	1.01 ± 0.014	0.9989 ± 0.0091	0.997 ± 0.012	0.994 ± 0.019	1 ± 0.022
TSEN54 (UniProt Q7Z6J9)	1.01 ± 0.03	1.03 ± 0.014	1.02 ± 0.018	0.99 ± 0.021	0.976 ± 0.018	0.997 ± 0.013
UniProt Q86X55 and related entries	0.939 ± 0.021	0.836 ± 0.12	0.902 ± 0.029	0.902 ± 0.032	0.926 ± 0.018	0.864 ± 0.015
UniProt Q8N9R8 and related entries	1.01 ± 0.028	0.935 ± 0.052	1.02 ± 0.042	0.979 ± 0.039	1.03 ± 0.035	1.01 ± 0.048
CCDC82 (UniProt Q8N4S0)	1 ± 0.025	1.03 ± 0.044	1.04 ± 0.031	1.05 ± 0.044	1.06 ± 0.084	1.11 ± 0.024
RHOT2 (UniProt Q8IXI1)	1.02 ± 0.021	1 ± 0.073	1.02 ± 0.03	0.9999 ± 0.006	1.004 ± 0.01	1.02 ± 0.034
GSPT2 (UniProt Q8IYD1)	1.07 ± 0.028	1.06 ± 0.04	1.06 ± 0.03	1.05 ± 0.014	1.04 ± 0.032	1.06 ± 0.044

Target	NP40-soluble protein abundance (concentration: 1mM)	NP40-soluble protein abundance (concentration: 2mM)	NP40-soluble protein abundance (concentration: 4mM)	NP40-soluble protein abundance (concentration: 6mM)	NP40-soluble protein abundance (concentration: 8mM)	NP40-soluble protein abundance (concentration: 10mM)
UniProt Q8IVB4	0.987 ± 0.029	0.9945 ± 0.004	0.973 ± 0.034	0.99507 ± 0.00094	0.972 ± 0.05	0.9566 ± 0.0083
UniProt Q86WV1 and related entries	0.999 ± 0.048	0.978 ± 0.019	0.997 ± 0.072	0.962 ± 0.072	0.96 ± 0.068	1.02 ± 0.11
UniProt Q86YC3	0.9427 ± 0.0038	0.964 ± 0.0084	0.98962 ± 0.00011	0.987 ± 0.02	0.981 ± 0.021	0.975 ± 0.018
UniProt Q8IUQ4 and related entries	0.984 ± 0.017	1.01 ± 0.0068	0.9931 ± 0.0098	0.996 ± 0.015	0.984 ± 0.01	0.9878 ± 0.0038
UniProt Q86VX2 and related entries	1.01 ± 0.016	0.992 ± 0.039	0.99056 ± 0.00036	1.06 ± 0.019	1.034 ± 0.0047	1.058 ± 0.0047
INTS1 (UniProt Q8N201)	1.01 ± 0.043	0.995 ± 0.051	1.06 ± 0.037	1.05 ± 0.063	1.05 ± 0.072	1.07 ± 0.086
UniProt Q8N2F6 and related entries	0.993 ± 0.045	1.08 ± 0.11	0.99 ± 0.056	1 ± 0.051	0.969 ± 0.066	0.94 ± 0.071
GLCCI1 (UniProt Q86VQ1)	1.027 ± 0.006	1.06 ± 0.035	0.994 ± 0.046	1.01 ± 0.04	0.9966 ± 0.0028	0.9912 ± 0.0063
UniProt Q86V88 and related entries	0.994 ± 0.051	0.983 ± 0.028	0.966 ± 0.031	0.98 ± 0.014	0.993 ± 0.034	0.975 ± 0.019
SPATA5 (UniProt Q8NB90)	1.04 ± 0.042	1.06 ± 0.13	1.12 ± 0.085	1.16 ± 0.095	1.16 ± 0.096	1.17 ± 0.13
LRRC8A (UniProt Q8IWT6)	0.983 ± 0.016	0.997 ± 0.032	0.983 ± 0.023	0.996 ± 0.017	0.99 ± 0.019	0.974 ± 0.019
UniProt Q8N5U6 and related entries	0.977 ± 0.011	0.977 ± 0.023	0.975 ± 0.032	0.998 ± 0.031	0.995 ± 0.056	0.991 ± 0.062
UniProt Q86T03-2	1 ± 0.033	1.01 ± 0.019	0.98 ± 0.045	0.962 ± 0.023	0.984 ± 0.018	1.01 ± 0.027
RYBP (UniProt Q8N488)	0.996 ± 0.025	1.07 ± 0.079	1.01 ± 0.041	1.04 ± 0.032	1.01 ± 0.021	1.03 ± 0.037
UniProt Q86UE8-2|Q86UE8-3|J3QLK5	1.039 ± 0.0045	1.02 ± 0.021	1.02 ± 0.017	1.01 ± 0.015	0.994 ± 0.022	0.992 ± 0.02
UniProt Q86V59 and related entries	1.02 ± 0.032	1.04 ± 0.025	1.06 ± 0.017	1.03 ± 0.0049	1.07 ± 0.029	1.05 ± 0.033

Reformatted as labelled records: entries from further up
LRRC8A (UniProt Q8IWT6)
  NP40-soluble protein abundance (concentration: 1mM): 0.983 ± 0.016
  NP40-soluble protein abundance (concentration: 2mM): 0.997 ± 0.032
  NP40-soluble protein abundance (concentration: 4mM): 0.983 ± 0.023
  NP40-soluble protein abundance (concentration: 6mM): 0.996 ± 0.017
  NP40-soluble protein abundance (concentration: 8mM): 0.99 ± 0.019
  NP40-soluble protein abundance (concentration: 10mM): 0.974 ± 0.019
UniProt Q8N5U6 and related entries
  NP40-soluble protein abundance (concentration: 1mM): 0.977 ± 0.011
  NP40-soluble protein abundance (concentration: 2mM): 0.977 ± 0.023
  NP40-soluble protein abundance (concentration: 4mM): 0.975 ± 0.032
  NP40-soluble protein abundance (concentration: 6mM): 0.998 ± 0.031
  NP40-soluble protein abundance (concentration: 8mM): 0.995 ± 0.056
  NP40-soluble protein abundance (concentration: 10mM): 0.991 ± 0.062
